Values from PubChem BioAssay AID652259 (Drosophila RNAi Screening Center, 2013)
The screen tested about 22,000 reagents; below is an unselected part of those that have a named target and a result. Over the whole deposit, 233 (1.1%) were called active. 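Light values are raw, unnormalised plate reads; the ratio scores behind the reporter calls were not deposited.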 Unmarked entries are inactive. A plus sign joins genes that one reagent is predicted to hit. The record does not give: the amount of reagent, the time to read-out, the dose of the treatment.

Assay: 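Identify new Wingless signalling regulators in fly cells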 (primary screen)
Cells: Drosophila clone 8 imaginal disc epithelial cells
Knock-down reagent: long dsRNA against Drosophila genes
Challenge: pathway stimulated by co-transfected Wingless expression plasmid
Detection: 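Dual luciferase reads per well after Wingless plasmid stimulation: reporter firefly light and Renilla control light; activity is firefly divided by Renilla, a ratio not deposited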
Reading the numbers: firefly reporter light: higher = more Wg reporter light, before normalisation; Renilla control light: higher = more transfected or surviving cells
Active means: 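Strong candidates differ from their plate mean by at least two out of four per-plate statistical tests; weak candidates meet just one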
Meaning of the calls: active = candidate regulator (raises or lowers reporter); inactive = not a candidate

CG14797 + CG32809 [DRSC18562] → firefly reporter light, replicate 1: 17836; Renilla control light, replicate 1: 12404
Ero1L [DRSC08660] → firefly reporter light, replicate 1: 5226; Renilla control light, replicate 1: 2048
wge [DRSC15246] → firefly reporter light, replicate 1: 3353; firefly reporter light, replicate 2: 6269; Renilla control light, replicate 1: 1954; Renilla control light, replicate 2: 2055
wge [DRSC15672] → firefly reporter light, replicate 1: 16140; Renilla control light, replicate 1: 14471
eg [DRSC11885] → firefly reporter light, replicate 1: 12343; Renilla control light, replicate 1: 3969
CG15708 [DRSC06579] → firefly reporter light, replicate 1: 6368; Renilla control light, replicate 1: 1952
Arc1 [DRSC06159] → firefly reporter light, replicate 1: 11253; Renilla control light, replicate 1: 2769
CG42337 [DRSC11686] → firefly reporter light, replicate 1: 20434; Renilla control light, replicate 1: 4566
CG42337 [DRSC11687] → reporter change call, replicate 1: Wg reporter activity raised (active); firefly reporter light, replicate 1: 12605; Renilla control light, replicate 1: 1349
eIF2gamma + Su(var)3-9 [DRSC13081] → firefly reporter light, replicate 1: 4502; Renilla control light, replicate 1: 1265
eIF2gamma + Su(var)3-9 [DRSC16873] → firefly reporter light, replicate 1: 8204; Renilla control light, replicate 1: 2549
janB [DRSC16973] → firefly reporter light, replicate 1: 9673; Renilla control light, replicate 1: 3272
CG30184 [DRSC22277] → firefly reporter light, replicate 1: 7.24e5; firefly reporter light, replicate 2: 7.47e5; Renilla control light, replicate 1: 3.24e5; Renilla control light, replicate 2: 3.52e5
B-H1 [DRSC19334] → firefly reporter light, replicate 1: 31540; Renilla control light, replicate 1: 10663
B-H1 [DRSC21922] → firefly reporter light, replicate 1: 6.71e5; firefly reporter light, replicate 2: 5.71e5; Renilla control light, replicate 1: 2.75e5; Renilla control light, replicate 2: 2.77e5
east [DRSC18770] → firefly reporter light, replicate 1: 28786; Renilla control light, replicate 1: 9773
CG9377 [DRSC03217] → firefly reporter light, replicate 1: 6608; Renilla control light, replicate 1: 2086
CG9815 [DRSC04567] → firefly reporter light, replicate 1: 2416; firefly reporter light, replicate 2: 6160; Renilla control light, replicate 1: 560; Renilla control light, replicate 2: 2904

As entered above.
For “Renilla control light, replicate 1”, Arc1 [DRSC06159] reads 2769
Result for B-H1 [DRSC19334] under “firefly reporter light, replicate 1”: 31540
eIF2gamma + Su(var)3-9 [DRSC13081], Renilla control light, replicate 1: 1265

Continued:
ste24a [DRSC07314] → firefly reporter light, replicate 1: 10539; Renilla control light, replicate 1: 4168
CG17300 [DRSC10260] → firefly reporter light, replicate 1: 7028; Renilla control light, replicate 1: 3410
Vps11 [DRSC11909] → firefly reporter light, replicate 1: 5748; Renilla control light, replicate 1: 2519
Vps11 [DRSC21579] → firefly reporter light, replicate 1: 5.24e5; firefly reporter light, replicate 2: 5.39e5; Renilla control light, replicate 1: 2.10e5; Renilla control light, replicate 2: 1.94e5
Octbeta3R [DRSC15351] → firefly reporter light, replicate 1: 11236; Renilla control light, replicate 1: 3129
Octbeta3R [DRSC16191] → firefly reporter light, replicate 1: 19188; Renilla control light, replicate 1: 3600
Octbeta3R [DRSC21853] → firefly reporter light, replicate 1: 5.54e5; firefly reporter light, replicate 2: 6.04e5; Renilla control light, replicate 1: 2.01e5; Renilla control light, replicate 2: 2.43e5
Octbeta3R [DRSC21902] → firefly reporter light, replicate 1: 2.97e5; firefly reporter light, replicate 2: 2.99e5; Renilla control light, replicate 1: 1.38e5; Renilla control light, replicate 2: 1.32e5
Octbeta3R [DRSC22350] → firefly reporter light, replicate 1: 9.20e5; firefly reporter light, replicate 2: 8.73e5; Renilla control light, replicate 1: 4.92e5; Renilla control light, replicate 2: 4.68e5
Tcs4 [DRSC19587] → firefly reporter light, replicate 1: 3701; firefly reporter light, replicate 2: 10592; Renilla control light, replicate 1: 1387; Renilla control light, replicate 2: 2772
CG42262 (retired record) [DRSC17628] → firefly reporter light, replicate 1: 3111; Renilla control light, replicate 1: 1396
CG42262 (retired record) [DRSC17974] → firefly reporter light, replicate 1: 15626; Renilla control light, replicate 1: 9713
CG13721 [DRSC08330] → firefly reporter light, replicate 1: 1638; firefly reporter light, replicate 2: 7162; Renilla control light, replicate 1: 1333; Renilla control light, replicate 2: 3786
CG17375 [DRSC02614] → firefly reporter light, replicate 1: 3060; firefly reporter light, replicate 2: 6695; Renilla control light, replicate 1: 1138; Renilla control light, replicate 2: 1888
